In US20240287457A1, “COMPOSITIONS AND CELL CULTURE MEDIA FOR INCREASING NEUTROPHIL LIFESPAN” (THE CHILDREN'S MEDICAL CENTER CORPORATION, priority 2021, published 2024):
Some of these results come from one statement about several compounds together. Where a SMILES comes first, the peptide text is derived from it. [ ]: non-standard residue; d: D form. The star is where a group is joined. ξ: configuration not given here. Cbz = O=C(OCc1ccccc1)*; ξD = NC(CC(=O)O)C(=O)O; CH2F = FC*

Test system: neutrophils
Assay: Neutrophil lifespan with additional pan caspase inhibitors (data not shown)
Type: cell-based
Conditions: combined with Hsp70, NAC and G-CSF, species not stated

In the case of COC(=O)CC(NC(=O)[C@@H](C)NC(=O)[C@H](NC(=O)OCc1ccccc1)C(C)C)C(=O)CF (stereo partly shown) [Z-VAD-FMK, carbobenzoxy-valyl-alanyl-aspartyl-[O-methyl]-fluoromethylketone] (Cbz-[dV]-[dA]-[ξD](OMe)-CH2F), the “neutrophils survived after culturing for 3 days” value is reported as “over 700”.
